This note sets out measurements from PMC5897841, “Development of a multipurpose scaffold for the display of peptide loops” (Protein Engineering, Design and Selection, 2017).

The chains behind the UniProt entries cited, without tags or fusion partners. Residues count along the entry.
UniProt P68400, residues 2-329: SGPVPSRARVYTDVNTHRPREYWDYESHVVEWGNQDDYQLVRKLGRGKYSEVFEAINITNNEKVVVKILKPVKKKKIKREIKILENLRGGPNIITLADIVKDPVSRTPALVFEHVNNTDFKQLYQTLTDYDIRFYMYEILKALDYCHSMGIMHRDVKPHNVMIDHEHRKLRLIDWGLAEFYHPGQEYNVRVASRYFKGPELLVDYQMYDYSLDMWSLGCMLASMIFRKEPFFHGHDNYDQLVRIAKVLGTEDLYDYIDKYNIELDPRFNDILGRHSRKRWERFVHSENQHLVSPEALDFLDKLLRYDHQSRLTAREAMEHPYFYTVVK

The target in assay [1] is CK2α kinase (human) (UniProt P68400). As to the kind of experiment: SEC; analytical Superdex 75 5/150, 20 mM HEPES pH 7.5, 500 mM NaCl; single proteins and equimolar mixture; fractions checked by SDS-PAGE; both purified.
Assay [2] has the same target. As to the kind of experiment: AUC; sedimentation velocity, absorbance at 280 nm, 50 000 rpm, 20°C, 20 mM HEPES pH 7.5, 500 mM NaCl; single proteins and mixtures (5 μM each CK2α and RAD-CK2β; 10 μM each Aurora A D274N and RAD-TPX2); both purified.

These are yes or no findings as the source states them, for the method shown.

Turning to “CK2α kinase (from UniProt P68400 2-329) (enzyme)”, the binding entry with CK2α kinase (human) [1] is “no binding”; with CK2α kinase (human) [2] it was “no binding (tested: 6 μM)”.
